The entries are a selection whose mix differs from that of the whole data set. Calls are pooled over several reports, among them a noisy single-well screen. This is one part of the list.
Assays:
Details in all cases: stereoisomer not certain
UniProt A2AVB5 = target: T1, UniProt A2AVB5
T1 sequence (whole entry): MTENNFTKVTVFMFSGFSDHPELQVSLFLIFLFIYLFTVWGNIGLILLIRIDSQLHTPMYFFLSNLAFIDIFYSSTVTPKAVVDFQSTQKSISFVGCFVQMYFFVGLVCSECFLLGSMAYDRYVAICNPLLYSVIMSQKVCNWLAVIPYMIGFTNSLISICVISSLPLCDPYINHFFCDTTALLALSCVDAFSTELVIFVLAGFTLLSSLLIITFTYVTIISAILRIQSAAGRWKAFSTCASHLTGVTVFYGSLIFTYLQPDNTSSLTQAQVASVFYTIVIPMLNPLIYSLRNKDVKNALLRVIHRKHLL
Method in brief: (§1)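 Values were gathered from published papers (main text and supplementary material), with extra details requested from the original authors when needed, and checked for typos and inconsistencies. Each receptor–molecule pair is called responsive (active) if the original authors judged the measured signal statistically different from baseline, and non-responsive (inactive) otherwise. Assay methods varied by source, often transient mammalian cell-line luciferase assays. Recorded details include cell line, G-protein, co-transfected protein and tags.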

Chains of the proteins cited; added tags and fusions are not shown. Lines headed by an entry give the natural chain unless they say otherwise; changes in a name come on top. A line that says so, or that is headed by a name, gives the form on record, which may keep a tag or linker.
UniProt A2ASV2, as listed by the source: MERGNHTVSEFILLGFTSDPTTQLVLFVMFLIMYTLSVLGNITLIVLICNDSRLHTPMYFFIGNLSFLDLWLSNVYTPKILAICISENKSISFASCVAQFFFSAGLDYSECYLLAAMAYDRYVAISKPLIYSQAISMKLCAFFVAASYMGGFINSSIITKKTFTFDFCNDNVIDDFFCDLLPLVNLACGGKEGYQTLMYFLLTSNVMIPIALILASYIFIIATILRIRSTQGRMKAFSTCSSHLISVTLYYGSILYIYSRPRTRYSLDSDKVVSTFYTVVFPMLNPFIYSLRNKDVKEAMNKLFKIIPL
UniProt A2AVA9, as listed by the source: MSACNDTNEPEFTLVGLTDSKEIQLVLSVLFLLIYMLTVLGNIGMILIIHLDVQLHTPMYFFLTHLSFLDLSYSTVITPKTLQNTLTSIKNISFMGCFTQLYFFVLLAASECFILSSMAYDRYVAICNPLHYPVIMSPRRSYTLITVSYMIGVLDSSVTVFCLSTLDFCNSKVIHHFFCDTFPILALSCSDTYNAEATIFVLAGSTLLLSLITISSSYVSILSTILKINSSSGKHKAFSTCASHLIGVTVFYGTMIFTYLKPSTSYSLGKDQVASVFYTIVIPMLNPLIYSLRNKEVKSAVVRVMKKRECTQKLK
UniProt A2AVC3, as listed by the source: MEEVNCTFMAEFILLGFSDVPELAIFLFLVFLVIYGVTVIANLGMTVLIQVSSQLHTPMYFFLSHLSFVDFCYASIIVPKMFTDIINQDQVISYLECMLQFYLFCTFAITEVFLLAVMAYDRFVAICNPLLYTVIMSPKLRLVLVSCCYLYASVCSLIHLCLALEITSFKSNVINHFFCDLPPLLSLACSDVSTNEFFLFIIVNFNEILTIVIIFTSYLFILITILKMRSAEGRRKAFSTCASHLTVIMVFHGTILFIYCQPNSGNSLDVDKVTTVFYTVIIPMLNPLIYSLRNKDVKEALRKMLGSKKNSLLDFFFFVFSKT

UniProt B2RVX8 = target: T2, UniProt B2RVX8
T2 sequence (whole entry): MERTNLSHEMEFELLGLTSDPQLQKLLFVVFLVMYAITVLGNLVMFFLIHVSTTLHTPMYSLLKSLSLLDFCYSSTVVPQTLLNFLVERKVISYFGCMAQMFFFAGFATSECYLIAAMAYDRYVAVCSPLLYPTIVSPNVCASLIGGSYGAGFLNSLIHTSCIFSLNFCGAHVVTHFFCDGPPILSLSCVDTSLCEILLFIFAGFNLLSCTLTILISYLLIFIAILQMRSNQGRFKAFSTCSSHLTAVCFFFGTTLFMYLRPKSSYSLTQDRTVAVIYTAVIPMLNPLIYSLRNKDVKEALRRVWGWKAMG
Method in brief: as §1

UniProt A2ATE5 = target: T3, UniProt A2ATE5
T3 sequence (whole entry): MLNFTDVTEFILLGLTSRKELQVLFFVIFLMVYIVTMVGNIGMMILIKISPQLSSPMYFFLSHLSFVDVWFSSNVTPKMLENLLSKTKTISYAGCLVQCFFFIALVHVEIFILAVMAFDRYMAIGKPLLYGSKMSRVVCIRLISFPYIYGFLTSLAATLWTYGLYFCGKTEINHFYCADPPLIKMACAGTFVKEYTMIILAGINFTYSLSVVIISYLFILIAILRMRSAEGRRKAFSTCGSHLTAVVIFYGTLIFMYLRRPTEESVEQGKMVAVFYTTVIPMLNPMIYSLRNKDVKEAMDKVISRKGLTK
Method in brief: as §1

UniProt A2AVB0 = target: T4, UniProt A2AVB0
T4 sequence (whole entry): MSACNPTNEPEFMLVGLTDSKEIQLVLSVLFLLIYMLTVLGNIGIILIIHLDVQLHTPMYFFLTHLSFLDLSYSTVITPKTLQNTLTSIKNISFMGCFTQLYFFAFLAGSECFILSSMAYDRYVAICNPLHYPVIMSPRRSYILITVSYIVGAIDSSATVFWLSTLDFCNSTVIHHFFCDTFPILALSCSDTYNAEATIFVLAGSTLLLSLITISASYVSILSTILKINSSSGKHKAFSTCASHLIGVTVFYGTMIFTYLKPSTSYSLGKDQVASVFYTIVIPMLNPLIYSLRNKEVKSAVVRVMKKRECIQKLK
Method in brief: as §1

[1] = tested on: Q7TRX1 G106A A108G A152G V205I
Method in brief: as §1

Q7TRX1 G106A = tested on: Q7TRX1 G106A
Method in brief: as §1

Q7TRX1 V205I = tested on: Q7TRX1 V205I
Method in brief: as §1

UniProt A2ASV2 = target: UniProt A2ASV2
Method in brief: as §1

UniProt A2AVA9 = target: UniProt A2AVA9
Method in brief: as §1

UniProt A2AVC3 = target: UniProt A2AVC3
Method in brief: as §1

`CC12CCC(C1)C(C)(C)C2=O` (stereo unspecified) was tested, and the “odorant receptor agonist call” value (UniProt A2AVB5) was “inactive” and the “odorant receptor agonist call” value (UniProt B2RVX8) was “inactive”.
With `CCCCO` the “odorant receptor agonist call” value (UniProt A2ATE5) was “inactive” and the “odorant receptor agonist call” value (UniProt A2AVB0) was “inactive”.
`C=C(C)C1CC=C(C)C(=O)C1` (stereo unspecified) was tested, and the “odorant receptor agonist call” value [1] was “active”, the “odorant receptor agonist call” value (Q7TRX1 G106A) was “active” and the “odorant receptor agonist call” value (Q7TRX1 V205I) was “active”. For the same molecule, the “odorant receptor agonist call” value (UniProt A2ASV2) was “inactive”, the “odorant receptor agonist call” value (UniProt A2ATE5) was “inactive” and the “odorant receptor agonist call” value (UniProt A2AVA9) was “inactive”. For the same molecule, the “odorant receptor agonist call” value (UniProt A2AVB0) was “inactive”, the “odorant receptor agonist call” value (UniProt A2AVB5) was “inactive” and the “odorant receptor agonist call” value (UniProt A2AVC3) was “inactive”. The “odorant receptor agonist call” value (UniProt B2RVX8) was “inactive”.
`CCCCCOC(C)=O` was tested, and the “odorant receptor agonist call” value (UniProt A2ATE5) was “inactive” and the “odorant receptor agonist call” value (UniProt A2AVB0) was “inactive”.

From the M2OR odorant receptor database
